No constants are given. Whether binding was seen depends on the method and setting. Binding seen in cells or lysates may run through a third protein. Some entries that bind do so weakly or less than the wild type.
T1: ARHGEF3 (endogenous) (mouse (endogenous in iBMDM)) (UniProt Q91X46)
T1 sequence: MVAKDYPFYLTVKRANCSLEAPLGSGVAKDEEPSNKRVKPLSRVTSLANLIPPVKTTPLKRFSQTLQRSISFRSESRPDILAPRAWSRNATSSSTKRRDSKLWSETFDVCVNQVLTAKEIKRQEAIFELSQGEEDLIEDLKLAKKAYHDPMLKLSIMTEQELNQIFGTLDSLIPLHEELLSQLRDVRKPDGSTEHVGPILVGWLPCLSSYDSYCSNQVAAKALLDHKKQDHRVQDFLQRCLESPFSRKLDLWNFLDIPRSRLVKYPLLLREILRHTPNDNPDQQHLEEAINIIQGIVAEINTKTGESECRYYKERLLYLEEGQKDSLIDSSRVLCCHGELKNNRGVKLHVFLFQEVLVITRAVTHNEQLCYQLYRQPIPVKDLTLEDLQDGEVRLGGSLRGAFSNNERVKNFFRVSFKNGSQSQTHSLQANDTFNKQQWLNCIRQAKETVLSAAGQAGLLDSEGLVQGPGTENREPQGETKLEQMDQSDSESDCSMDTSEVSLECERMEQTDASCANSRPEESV

By UniProt entry, the sequences of proteins in these tests, tags left out. Residues count along the entry.
UniProt Q9QUK6, residues 26-835: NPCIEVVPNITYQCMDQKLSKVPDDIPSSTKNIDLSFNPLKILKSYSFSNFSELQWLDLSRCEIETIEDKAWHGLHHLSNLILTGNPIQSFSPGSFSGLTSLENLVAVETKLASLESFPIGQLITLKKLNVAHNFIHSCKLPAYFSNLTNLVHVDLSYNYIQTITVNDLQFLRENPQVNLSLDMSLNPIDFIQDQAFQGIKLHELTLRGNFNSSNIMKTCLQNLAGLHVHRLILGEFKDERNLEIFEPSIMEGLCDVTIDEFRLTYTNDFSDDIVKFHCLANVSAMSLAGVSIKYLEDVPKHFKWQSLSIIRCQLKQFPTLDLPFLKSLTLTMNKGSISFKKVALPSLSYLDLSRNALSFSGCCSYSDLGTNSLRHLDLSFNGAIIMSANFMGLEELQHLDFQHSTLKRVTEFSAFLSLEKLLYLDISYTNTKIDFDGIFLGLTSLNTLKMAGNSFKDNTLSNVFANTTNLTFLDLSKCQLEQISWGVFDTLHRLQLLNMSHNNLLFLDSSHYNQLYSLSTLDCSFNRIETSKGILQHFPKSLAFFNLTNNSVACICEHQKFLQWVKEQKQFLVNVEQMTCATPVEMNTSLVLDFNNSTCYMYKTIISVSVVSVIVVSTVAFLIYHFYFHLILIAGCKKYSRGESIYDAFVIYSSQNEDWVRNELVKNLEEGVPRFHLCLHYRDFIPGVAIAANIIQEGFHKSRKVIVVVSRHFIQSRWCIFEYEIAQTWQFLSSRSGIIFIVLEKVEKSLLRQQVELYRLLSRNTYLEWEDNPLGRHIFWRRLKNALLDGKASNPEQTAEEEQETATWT


Columns and labels:
[1] = target: T1, ARHGEF3 (endogenous) (mouse (endogenous in iBMDM)); experiment: co-IP; lysates of iBMDMs stably expressing TLR4-HA, LPS in the culture medium for 6 h; lysis buffer 50 mM Tris-HCl pH 8.0, 150 mM NaCl, 0.5% NP-40, 1 mM EDTA; overnight at 4 °C with Protein A/G PLUS-Agarose and ARHGEF3 antibody or HA antibody (reciprocal); western blot
[2] = target: HA-tagged TLR4 (mTLR4-HA) (mouse) (UniProt Q9QUK6); experiment: as above

binding [1]	binding [2]	Molecule
binds		HA-tagged TLR4 (mTLR4-HA) (from UniProt Q9QUK6 26-835) (receptor)
	binds	ARHGEF3 (endogenous) (protein, UniProt Q91X46 1-524) MVAKDYPFYLTVKRANCSLEAPLGSGVAKDEEPSNKRVKPLSRVTSLANLIPPVKTTPLKRFSQTLQRSISFRSESRPDILAPRAWSRNATSSSTKRRDSKLWSETFDVCVNQVLTAKEIKRQEAIFELSQGEEDLIEDLKLAKKAYHDPMLKLSIMTEQELNQIFGTLDSLIPLHEELLSQLRDVRKPDGSTEHVGPILVGWLPCLSSYDSYCSNQVAAKALLDHKKQDHRVQDFLQRCLESPFSRKLDLWNFLDIPRSRLVKYPLLLREILRHTPNDNPDQQHLEEAINIIQGIVAEINTKTGESECRYYKERLLYLEEGQKDSLIDSSRVLCCHGELKNNRGVKLHVFLFQEVLVITRAVTHNEQLCYQLYRQPIPVKDLTLEDLQDGEVRLGGSLRGAFSNNERVKNFFRVSFKNGSQSQTHSLQANDTFNKQQWLNCIRQAKETVLSAAGQAGLLDSEGLVQGPGTENREPQGETKLEQMDQSDSESDCSMDTSEVSLECERMEQTDASCANSRPEESV

Reference: PMC12402336
